Some results were stated once for a whole list of compounds, not compound by compound.
Each compound was assayed against T1, CCR-3 (Homo sapiens, UniProt P51677) (assay: CCR-3 competition binding SPA (scintillation proximity assay)). Details: inhibition of [125I] eotaxin binding to membranes from K562 cells stably expressing CCR-3.
T1 construct: expressed in transfected cells
T1 sequence (P51677 1-355): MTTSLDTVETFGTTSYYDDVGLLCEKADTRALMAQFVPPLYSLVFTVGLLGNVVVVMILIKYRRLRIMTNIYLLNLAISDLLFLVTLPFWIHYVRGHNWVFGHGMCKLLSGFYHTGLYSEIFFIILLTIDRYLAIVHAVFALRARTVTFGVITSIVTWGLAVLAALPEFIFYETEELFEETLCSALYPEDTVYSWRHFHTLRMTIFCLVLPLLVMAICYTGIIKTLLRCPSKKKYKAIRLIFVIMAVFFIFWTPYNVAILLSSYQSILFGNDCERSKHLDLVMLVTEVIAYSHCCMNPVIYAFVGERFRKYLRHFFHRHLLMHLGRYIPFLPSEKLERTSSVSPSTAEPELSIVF

| SMILES | pIC50 value in CCR-3 binding assay (assay (a)) |
| --- | --- |
| CC(=O)Nc1ccccc1CC(=O)NCC1CN(Cc2ccc(Cl)c(Cl)c2)CCO1 (centres unmarked) [Example 119, 2-[2-(acetylamino)phenyl]-N-{[4-(3,4-dichlorobenzyl)morpholin-2-yl]methyl}acetamide] | greater than 5.0 |
| N#Cc1cccc(CC(=O)NCC2CN(Cc3ccc(Cl)c(Cl)c3)CCO2)c1 (centres unmarked) [Example 120, 2-(3-cyanophenyl)-N-{[4-(3,4-dichlorobenzyl)morpholin-2-yl]methyl}acetamide] | greater than 5.0 |
| C[C@@H]1CO[C@@H](CNC(=O)Cc2ccccc2)CN1Cc1cc(Cl)ccc1Cl [Example 121, N-{[(2S,5R)-4-(2,5-dichlorobenzyl)-5-methylmorpholin-2-yl]methyl}-2-phenylacetamide] | greater than 5.0 |
| C[C@@H]1CO[C@@H](CNC(=O)Cc2ccc(Cl)cc2)CN1Cc1cc(Cl)ccc1Cl [Example 122, 2-(4-chlorophenyl)-N-{[(2S,5R)-4-(2,5-dichlorobenzyl)-5-methylmorpholin-2-yl]methyl}acetamide] | greater than 5.0 |
| O=C(Cc1ccccc1F)NCC1CN(Cc2ccc(Cl)c(Cl)c2)CCO1 (centres unmarked) [Example 123, N-{[4-(3,4-dichlorobenzyl)morpholin-2-yl]methyl}-2-(2-fluorophenyl)acetamide] | greater than 5.0 |
| O=C(Cc1cccc(F)c1F)NCC1CN(Cc2ccc(Cl)c(Cl)c2)CCO1 (centres unmarked) [Example 124, N-{[4-(3,4-dichlorobenzyl)morpholin-2-yl]methyl}-2-(2,3-difluorophenyl)acetamide] | greater than 5.0 |
| O=C(Cc1ccc(F)cc1F)NCC1CN(Cc2ccc(Cl)c(Cl)c2)CCO1 (centres unmarked) [Example 125, N-{[4-(3,4-dichlorobenzyl)morpholin-2-yl]methyl}-2-(2,4-difluorophenyl)acetamide] | greater than 5.0 |
| O=C(Cc1cc(F)ccc1F)NCC1CN(Cc2ccc(Cl)c(Cl)c2)CCO1 (centres unmarked) [Example 126, N-{[4-(3,4-dichlorobenzyl)morpholin-2-yl]methyl}-2-(2,5-difluorophenyl)acetamide] | greater than 5.0 |
| COCCNC(=O)c1cccc(CC(=O)NCC2CN(Cc3ccc(Cl)c(Cl)c3)CCO2)c1 (centres unmarked) [Example 127, 3-[2-({[4-(3,4-dichlorobenzyl)morpholin-2-yl]methyl}amino)-2-oxoethyl]-N-(2-methoxyethyl)benzamide] | greater than 5.0 |
| CCNC(=O)c1cccc(CC(=O)NCC2CN(Cc3ccc(Cl)c(Cl)c3)CCO2)c1 (centres unmarked) [Example 128, 3-[2-({[4-(3,4-dichlorobenzyl)morpholin-2-yl]methyl}amino)-2-oxoethyl]-N-ethylbenzamide] | greater than 5.0 |
| CN(C)C(=O)c1cccc(CC(=O)NCC2CN(Cc3ccc(Cl)c(Cl)c3)CCO2)c1 (centres unmarked) [Example 129, 3-[2-({[4-(3,4-dichlorobenzyl)morpholin-2-yl]methyl}amino)-2-oxoethyl]-N,N-dimethylbenzamide] | greater than 5.0 |
| CN(C)CCNC(=O)c1cccc(CC(=O)NCC2CN(Cc3ccc(Cl)c(Cl)c3)CCO2)c1 (centres unmarked) [Example 130, 3-[2-({[4-(3,4-dichlorobenzyl)morpholin-2-yl]methyl}amino)-2-oxoethyl]-N-[2-(dimethylamino)ethyl]benzamide] | greater than 5.0 |
| CN1CCN(C(=O)c2cccc(CC(=O)NCC3CN(Cc4ccc(Cl)c(Cl)c4)CCO3)c2)CC1 (centres unmarked) [Example 131, N-{[4-(3,4-dichlorobenzyl)morpholin-2-yl]methyl}-2-{3-[(4-methylpiperazin-1-yl)carbonyl]phenyl}acetamide] | greater than 5.0 |
| Nc1cccc(CC(=O)NCC2CN(Cc3ccc(Cl)c(Cl)c3)CCO2)c1 (centres unmarked) [Example 132, 2-(3-aminophenyl)-N-{[4-(3,4-dichlorobenzyl)morpholin-2-yl]methyl}acetamide] | greater than 5.0 |
| Nc1ccc(CC(=O)NCC2CN(Cc3ccc(Cl)c(Cl)c3)CCO2)cc1 (centres unmarked) [Example 133, 2-(4-aminophenyl)-N-{[4-(3,4-dichlorobenzyl)morpholin-2-yl]methyl}acetamide] | greater than 5.0 |
| Cc1oc(-c2ccccc2)nc1CC(=O)NC[C@H]1CN(Cc2ccc(Cl)c(Cl)c2)CCO1.Cl [Example 134, N-{[(2S)-4-(3,4-dichlorobenzyl)morpholin-2-yl]methyl}-2-(5-methyl-2-phenyl-1,3-oxazol-4-yl)acetamide hydrochloride] | greater than 5.0 |

| SMILES | pIC50 value in CCR-3 binding assay (assay (a)) |
| --- | --- |
| Cc1oc(-c2ccccc2)nc1CC(=O)NC[C@H]1CN(Cc2ccc(Cl)c(Cl)c2)CCO1.O=C(O)/C=C/C(=O)O [Example 135, N-{[(2S)-4-(3,4-dichlorobenzyl)morpholin-2-yl]methyl}-2-(5-methyl-2-phenyl-1,3-oxazol-4-yl)acetamide fumarate salt] | greater than 5.0 |
| CC(=O)Nc1ccc(CC(=O)NCC2CN(Cc3ccc(Cl)c(Cl)c3)CCO2)cc1 (centres unmarked) [Example 136, 2-[4-(acetylamino)phenyl]-N-{[4-(3,4-dichlorobenzyl)morpholin-2-yl]methyl}acetamide] | greater than 5.0 |
| CC(C)C(=O)Nc1ccc(CC(=O)NCC2CN(Cc3ccc(Cl)c(Cl)c3)CCO2)cc1 (centres unmarked) [Example 137, N-{4-[2-({[4-(3,4-dichlorobenzyl)morpholin-2-yl]methyl}amino)-2-oxoethyl]phenyl}-2-methylpropanamide] | greater than 5.0 |
| CC(C)C(=O)Nc1cccc(CC(=O)NCC2CN(Cc3ccc(Cl)c(Cl)c3)CCO2)c1 (centres unmarked) [Example 138, N-{3-[2-({[4-(3,4-dichlorobenzyl)morpholin-2-yl]methyl}amino)-2-oxoethyl]phenyl}-2-methylpropanamide] | greater than 5.0 |
| CS(=O)(=O)Nc1cccc(CC(=O)NCC2CN(Cc3ccc(Cl)c(Cl)c3)CCO2)c1 (centres unmarked) [Example 139] | greater than 5.0 |
| Cc1oc(-c2ccccc2)nc1CC(=O)NC[C@H]1CN(Cc2ccc(Cl)c(Cl)c2)[C@H](C)CO1 [Example 140, N-{[(2S,5R)-4-(3,4-dichlorobenzyl)-5-methylmorpholin-2-yl]methyl}-2-(5-methyl-2-phenyl-1,3-oxazol-4-yl)acetamide] | greater than 5.0 |
| CS(=O)(=O)Nc1ccc(CC(=O)NCC2CN(Cc3ccc(Cl)c(Cl)c3)CCO2)cc1 (centres unmarked) [Example 141, N-{[4-(3,4-dichlorobenzyl)morpholin-2-yl]methyl}-2-{4-[(methylsulfonyl)amino]phenyl}acetamide] | greater than 5.0 |
| CN(C)CC(=O)Nc1cccc(CC(=O)NCC2CN(Cc3ccc(Cl)c(Cl)c3)CCO2)c1 (centres unmarked) [Example 142, N-{3-[2-({[4-(3,4-dichlorobenzyl)morpholin-2-yl]methyl}amino)-2-oxoethyl]phenyl}-2-(dimethylamino)acetamide] | greater than 5.0 |
| CS(=O)(=O)N(c1ccc(CC(=O)NCC2CN(Cc3ccc(Cl)c(Cl)c3)CCO2)cc1)S(C)(=O)=O (centres unmarked) [Example 143, 2-{4-[bis(methylsulfonyl)amino]phenyl}-N-{[4-(3,4-dichlorobenzyl)morpholin-2-yl]methyl}acetamide] | greater than 5.0 |
| Cc1sc(-c2ccccc2)nc1CC(=O)NCC1CN(Cc2ccc(Cl)c(Cl)c2)CCO1 (centres unmarked) [Example 144, N-{[4-(3,4-dichlorobenzyl)morpholin-2-yl]methyl}-2-(5-methyl-2-phenyl-1,3-thiazol-4-yl)acetamide] | greater than 5.0 |
| Cc1sc(-c2cnccn2)nc1CC(=O)NCC1CN(Cc2ccc(Cl)c(Cl)c2)CCO1 (centres unmarked) [Example 145, N-{[4-(3,4-dichlorobenzyl)morpholin-2-yl]methyl}-2-(5-methyl-2-pyrazin-2-yl-1,3-thiazol-4-yl)acetamide] | greater than 5.0 |
| CS(=O)(=O)c1cccc(CC(=O)NCC2CN(Cc3ccc(Cl)c(Cl)c3)CCO2)c1 (centres unmarked) [Example 146, N-{[4-(3,4-dichlorobenzyl)morpholin-2-yl]methyl}-2-[3-(methylsulfonyl)phenyl]acetamide] | greater than 5.0 |
| CS(=O)(=O)c1ccc(CC(=O)NCC2CN(Cc3ccc(Cl)c(Cl)c3)CCO2)c([N+](=O)[O-])c1 (centres unmarked) [Example 147, N-{[4-(3,4-dichlorobenzyl)morpholin-2-yl]methyl}-2-[4-(methylsulfonyl)-2-nitrophenyl]acetamide] | greater than 5.0 |
| O=C(Cc1ccccc1O)NCC1CN(Cc2ccc(Cl)c(Cl)c2)CCO1 (centres unmarked) [Example 148, N-{[4-(3,4-dichlorobenzyl)morpholin-2-yl]methyl}-2-(2-hydroxyphenyl)acetamide] | greater than 5.0 |
| O=C(Cc1coc(-c2ccccc2)n1)NCC1CN(Cc2ccc(Cl)c(Cl)c2)CCO1 (centres unmarked) [Example 149, N-{[4-(3,4-dichlorobenzyl)morpholin-2-yl]methyl}-2-(2-phenyl-1,3-oxazol-4-yl)acetamide] | greater than 5.0 |
| CN(c1ccc(CC(=O)NCC2CN(Cc3ccc(Cl)c(Cl)c3)CCO2)cc1)S(C)(=O)=O (centres unmarked) [Example 150, N-{[4-(3,4-dichlorobenzyl)morpholin-2-yl]methyl}-2-{4-[methyl(methylsulfonyl)amino]phenyl}acetamide] | greater than 5.0 |

Source: patent publication US20050222147A1, “Process for the preparation of morpholine derivatives and intermediates therefore” (priority 2000, published 2005)
